Experimental findings from paper doi:10.1101/203539 are described below.

These are yes or no findings as the source states them, for the method shown. In cells and extracts the contact can be indirect. Some binding calls cover weakened binding; strength is not graded here. Where a sequence is shown, tags or fusion partners need not be part of it.

The experiment concerns the target T1, biotagged Csde1 (cold shock domain protein e1) (UniProt Q91W50).
T1 sequence (chain, biotin on the biotag (biotin ligase BirA coexpressed)): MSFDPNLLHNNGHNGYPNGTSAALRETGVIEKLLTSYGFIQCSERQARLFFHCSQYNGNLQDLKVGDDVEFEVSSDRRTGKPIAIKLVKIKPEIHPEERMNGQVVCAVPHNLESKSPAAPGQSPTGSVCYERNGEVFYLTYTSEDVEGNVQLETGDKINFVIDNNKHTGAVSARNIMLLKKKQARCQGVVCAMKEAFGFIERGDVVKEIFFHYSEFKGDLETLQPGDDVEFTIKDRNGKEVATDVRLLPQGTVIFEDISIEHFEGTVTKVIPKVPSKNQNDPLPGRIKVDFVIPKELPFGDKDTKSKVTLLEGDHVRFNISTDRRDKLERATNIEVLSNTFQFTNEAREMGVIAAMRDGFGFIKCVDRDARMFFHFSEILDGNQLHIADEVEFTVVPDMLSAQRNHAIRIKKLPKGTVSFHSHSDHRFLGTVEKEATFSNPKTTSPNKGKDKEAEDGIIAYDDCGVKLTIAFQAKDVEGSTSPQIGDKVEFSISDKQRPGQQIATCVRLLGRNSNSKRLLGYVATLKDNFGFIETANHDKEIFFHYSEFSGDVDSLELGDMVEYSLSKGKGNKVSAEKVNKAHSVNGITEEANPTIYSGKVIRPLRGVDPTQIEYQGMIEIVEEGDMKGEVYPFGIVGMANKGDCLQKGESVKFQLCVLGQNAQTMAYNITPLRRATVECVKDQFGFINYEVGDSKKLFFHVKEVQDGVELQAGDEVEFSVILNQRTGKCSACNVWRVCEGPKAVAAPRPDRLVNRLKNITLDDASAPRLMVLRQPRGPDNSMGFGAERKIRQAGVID
Description: pull-down.

B1: Strap (serine-threonine receptor associated-protein) (protein, UniProt Q9Z1Z2 1-350)
chain: MAMRQTPLTCSGHTRPVVDLAFSGITPYGYFLISACKDGKPMLRQGDTGDWIGTFLGHKGAVWGATLNKDATKAATAAADFTAKVWDAVSGDELMTLAHKHIVKTVDFTQDSNYLLTGGQDKLLRIYDLNKPEAEPKEISGHTSGIKKALWCSDDKQILSADDKTVRLWDHATMTEVKSLNFNMSVSSMEYIPEGEILVITYGRSIAFHSAVSLEPIKSFEAPATINSASLHPEKEFLVAGGEDFKLYKYDYNSGEELESYKGHFGPIHCVRFSPDGELYASGSEDGTLRLWQTVVGKTYGLWKCVLPEEDSGELAKPKIGFPETAEEELEEIASENSDSIYSSTPEVKA
For B1, the binding entry is “binds”.
